For at least one compound, name, drawing or mass did not settle the structure.
Test system: PHTXS-13O human primary ovarian cancer xenografts
Assay: In vivo combination study, Patient Derived Xenograft
Set-up: species or system mouse
Protocol: To investigate in vivo antitumor activity of Compound 1 in combination with other agents, tests using Cell Derived Xenograft (CDX), Patient Derived Xenograft (PDX) and Syngeneic mouse tumor isograft model were conducted. Cells or Patient Derived Tumors were inoculated by one method of the following two methods (Method A and B) as shown Table 7.
Method A; Cells were maintained in either immune deficient nude mice or immune competent mice by subcutaneous inoculation of tumor cells at various concentrations into respected mice. Method B: Patient Derived Tumor s were maintained in nude mice by subcutaneous inoculation of tumor pieces (approx. 2×2×2 mm) into nude mice. Mice with tumor size of approximately 50 mm^3 (e.g., 40-75 mm^3) for syngeneic mouse studies or 200 mm^3 (e.g., 110-270 mm^3) for xenograft studies were randomly assigned to dose groups on the day (Day 0) before start date of dosing.
Compound 1 (crystalline form I) was suspended in 0.5 w/v % methylcellulose and administered orally to mice. Antibodies which administered in the experiment were described in Table 8.
Tumor size was measured by caliper and tumor volume was estimated using the equation V=(LW^2)/2, where L and W are tumor length and width, respectively and reported in cubic millimeters.
These values were compared across treatment groups to assess whether the differences in the trends over time were statistically significant. To compare pairs of treatment groups, the following mixed-effects linear regression model was fit to the data using the maximum likelihood method:
For synergy analyses, the observed differences in the log tumor values were used to calculate AUC values for each animal. In instances when an animal in a treatment group was removed from the study, the last observed tumor value was carried forward through all subsequent time points. The AUC for the control, or vehicle, group was calculated using the predicted values from the pairwise models described above. We defined a measure of synergy as follows:
where Ak and Bk are the k^th animal in the individual treatment groups and ABk is the k^th animal in combination treatment group. AUCcd is the model-predicted AUC for the control group and was treated as a constant with no variability. The standard error of the synergy score was calculated as the square root of the sum of squared standard errors across groups A, B, and AB. The degrees of freedom were estimated using the Welch-Satterthwaite equation. A hypothesis test was performed to determine if the synergy score differed from 0. P values were calculated by dividing the synergy score by its standard error and tested against a t-distribution (two-tailed) with the above-calculated degrees of freedom.
The effect was classified into four different categories. It was considered synergistic if the synergy score was less than 0 and additive if the synergy score wasn't statistically different from 0. If the synergy score was greater than zero, but the mean AUC for the combination was lower than the lowest mean AUC among the two single agent treatments, then the combination was sub-additive. If the synergy score was greater than zero, and the mean AUC for the combination was greater than the mean AUC for at least one of the single agent treatments, then the combination was antagonistic.

`CC(=O)c1c(C)c2cnc(Nc3ccc(N4CCNCC4)cn3)nc2n(C2CCCC2)c1=O` [Palbociclib] was tested. Which “Result (combination with Compound 1, tumor growth)” value (shortened to “Result”) (PHTXS-13O (110 mm^3) FIG. 6B, Compound 1 40 mg/kg once daily Day 1-21, drug 50 mg/kg orally Days 1-21) did it give?
Its value is “Additive”.

What about the “Result” value (PHTXS-13O (110 mm^3) FIG. 6B, Compound 1 40 mg/kg once daily Day 1-21, drug 100 mg/kg orally Days 1-21) of the same molecule?
The value was “Additive”.

What about the “Result” value (PHTXS-13O (110 mm^3) FIG. 6B, Compound 1 60 mg/kg once daily Day 1-21, drug 50 mg/kg orally Days 1-21) of the same molecule?
The value was “Additive”.

What about the “Result” value (PHTXS-13O (110 mm^3) FIG. 6B, Compound 1 60 mg/kg once daily Day 1-21, drug 100 mg/kg orally Days 1-21) of the same molecule?
Its value is “Additive”.

And the “Result” value (PHTXS-13O (120 mm^3), Compound 1 60 mg/kg once daily Day 1-14, drug 100 mg/kg orally Days 1-14)?
Its value is “Additive”.

And the antitumor activity (combined with Compound 1, PHTXS-13O human primary ovarian cancer xenografts, FIG. 6B)?
Its antitumor activity is “strong antitumor activity compared to either single treatment alone”.

Reference: US20220323443A1, “COMBINATION THERAPY FOR CANCER TREATMENT” (TAKEDA PHARMACEUTICAL COMPANY LIMITED, priority 2019, published 2022)
